# Laboratory results published in publication PMC12618502.
# Target: T1, GFP-tagged SCP8 (SCP8-GFP), Verticillium dahliae small cysteine-containing effector VdSCP8 (Verticillium dahliae) (UniProt G2XD53)
# T1 sequence: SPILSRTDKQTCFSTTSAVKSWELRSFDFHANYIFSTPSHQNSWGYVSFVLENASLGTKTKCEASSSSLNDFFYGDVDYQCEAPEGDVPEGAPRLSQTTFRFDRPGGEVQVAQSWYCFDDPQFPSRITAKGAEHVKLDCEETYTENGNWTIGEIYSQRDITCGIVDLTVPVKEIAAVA
# Experiment: co-IP; N. benthamiana leaves co-expressing SCP8-GFP and SBT1-myc, 2 days after agroinfiltration; RIPA buffer with protease inhibitors; anti-GFP agarose beads, 4 °C, one hour; blots with anti-GFP and anti-myc
substance,measurement,value
myc-tagged N. benthamiana SBT1 (SBT1-myc) (enzyme),binding,binds

# Results are given in words; binding and its absence hold for the method and conditions named. Binding seen in cells or lysates may run through a third protein. Binding can be weak; no strength is given. Tags and fused reporters may be left off the sequences shown.
